No constants are given. Whether binding was seen depends on the method and setting. Some results given as binding are weak or reduced against the parent protein; the word gives no strength.

By UniProt entry, the sequences of proteins in these tests, tags left out. Residues count along the entry.
UniProt Q08722, residues 19-323: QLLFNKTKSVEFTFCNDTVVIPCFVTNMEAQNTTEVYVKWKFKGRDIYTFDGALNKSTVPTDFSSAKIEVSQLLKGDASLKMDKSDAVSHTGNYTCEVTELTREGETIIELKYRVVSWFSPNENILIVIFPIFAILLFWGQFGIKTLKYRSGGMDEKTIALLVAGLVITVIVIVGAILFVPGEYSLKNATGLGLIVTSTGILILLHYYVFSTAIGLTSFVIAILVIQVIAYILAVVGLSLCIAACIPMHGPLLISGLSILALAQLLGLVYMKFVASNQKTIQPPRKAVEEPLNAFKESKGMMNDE

In assay [1] the target is human RBC (human) (UniProt Q08722). The assay can be described thus: flow cytometry on human red blood cells, PE goat anti-human IgG Fc secondary, MFI [upper left panel].
Assay [2] shares this target. The assay can be described thus: flow cytometry on human red blood cells, PE goat anti-human IgG Fc secondary, MFI [lower left panel]. A general note: Flow cytometry measures light scatter and fluorescence of single cells or particles in a stream.
Assay [3] shares this target. The assay is described as follows: flow cytometry on human red blood cells, PE goat anti-human IgG Fc secondary, MFI [upper right panel].
For assay [4], the target named is human platelets (CD61 APC-positive gate P1). The assay is described as follows: flow cytometry on diluted human whole blood, platelets gated as CD61 APC-positive (P1), PE goat anti-human IgG Fc secondary [panel 7A11H12 : P1].

B1: 7A11H32 (antibody, V domains shown)
VH: QVQLVQSGAEVKKPGSSVKVSCKASGSSFTSNWMNWVRQAPGQGLEWIGMIHPSDSETRLNQKFKDRVTITADKSTSTAYMELSSLRSEDTAVYYCARGTTVVDAFAYWGQGTTVTVSS
VL: DIQMTQSPSSLSASVGDRVTMTCKSSQSLLNSRTRKNYLAWYQQKPGKAPKLLIYWASTRESGVPSRFSGSGSGTDFTLTISSLQPEDFATYYCKQSYNLRTFGGGTKLEIK
For the molecule B1, in assay [1], the binding entry was “binds”.

B2: 7A11H52 (antibody, V domains shown)
VH: QVQLVQSGAEVKKPGSSVKVSCKASGGTFTSNWMNWVRQAPGQGLEWIGMIHPSDSETRLNQKFQGRVTITADKSTSTAYMELSSLRSEDTAVYYCARGTTVVDAFAYWGQGTTVTVSS
VL: DIQMTQSPSSLSASVGDRVTMTCKSSQSLLNSRTRKNYLAWYQQKPGKAPKLLIYWASTRESGVPSRFSGSGSGTDFTLTISSLQPEDFATYYCKQSYNLRTFGGGTKLEIK
As to B2, in assay [2], the binding entry is “binds”.

B3: 7A11H33 (antibody, V domains shown)
VH: QVQLVQSGAEVKKPGSSVKVSCKASGSSFTSNWMNWVRQAPGQGLEWIGMIHPSDSETRLNQKFKDRVTITADKSTSTAYMELSSLRSEDTAVYYCARGTTVVDAFAYWGQGTTVTVSS
VL: DIQMTQSPSSLSASVGDRVTMTCKSSQSLLNTRTRKNYLAWYQQKPGKAPKLLIYWASTRESGVPSRFSGSGSGTDFTLTISSLQPEDFATYYCKQSYNLRTFGGGTKLEIK
As for B3, the binding result in assay [2] is on record as “binds”.

B4: 7A11H42 (antibody, V domains shown)
VH: QVQLVQSGAEVKKPGSSVKVSCKASGSSFTSNWMNWVRQAPGQGLEWIGMIHPSDSETRLNQKFQGRVTITADKSTSTAYMELSSLRSEDTAVYYCARGTTVVDAFAYWGQGTTVTVSS
VL: DIQMTQSPSSLSASVGDRVTMTCKSSQSLLNSRTRKNYLAWYQQKPGKAPKLLIYWASTRESGVPSRFSGSGSGTDFTLTISSLQPEDFATYYCKQSYNLRTFGGGTKLEIK
With B4, the binding result in assay [3] was “binds”.

B5: 7A11H22 (antibody, V domains shown)
VH: QVQLVQSGAEVKKPGASVKVSCKASGSSFTSNWMNWVRQAPGQGLEWIGMIHPSDSETRLNQKFKDRATLTVDKSTSTAYMELSSLRSEDTAVYYCARGTTVVDAFAYWGQGTTVTVSS
VL: DIQMTQSPSSLSASVGDRVTMTCKSSQSLLNSRTRKNYLAWYQQKPGKAPKLLIYWASTRESGVPSRFSGSGSGTDFTLTISSLQPEDFATYYCKQSYNLRTFGGGTKLEIK
Regarding B5, the binding entry in assay [3] is listed as “binds”.

B6: 7A11H12 (antibody, V domains shown)
VH: QVQLVQPGAEVKKPGASVKLSCKASGSSFTSNWMNWVRQAPGQGLEWIGMIHPSDSETRLNQKFKDRATLTVDKSTSTAYMELSSPRSEDTAVYYCARGTTVVDAFAYWGQGTTVTVSS
VL: DIQMTQSPSSLSASVGDRVTMTCKSSQSLLNSRTRKNYLAWYQQKPGKAPKLLIYWASTRESGVPSRFSGSGSGTDFTLTISSLQPEDFATYYCKQSYNLRTFGGGTKLEIK
Turning to B6, the binding entry in assay [4] is “binds”.

The values are drawn from US20230312709A1.
